Measured values taken from the supplement of paper PMC12819154, “High-throughput peptide-centric local stability assay extends protein–ligand identification to membrane proteins, tissues and bacteria” (Nature Structural & Molecular Biology, 2025).
This is one part of the list. Most values lie at the level of the controls, where differences are scatter.

Protein sequences, listed by entry. Tags and fused reporters are not part of them. Lines headed by an entry give the natural chain unless they say otherwise; changes in a name come on top.
UniProt Q91YE6, whole entry: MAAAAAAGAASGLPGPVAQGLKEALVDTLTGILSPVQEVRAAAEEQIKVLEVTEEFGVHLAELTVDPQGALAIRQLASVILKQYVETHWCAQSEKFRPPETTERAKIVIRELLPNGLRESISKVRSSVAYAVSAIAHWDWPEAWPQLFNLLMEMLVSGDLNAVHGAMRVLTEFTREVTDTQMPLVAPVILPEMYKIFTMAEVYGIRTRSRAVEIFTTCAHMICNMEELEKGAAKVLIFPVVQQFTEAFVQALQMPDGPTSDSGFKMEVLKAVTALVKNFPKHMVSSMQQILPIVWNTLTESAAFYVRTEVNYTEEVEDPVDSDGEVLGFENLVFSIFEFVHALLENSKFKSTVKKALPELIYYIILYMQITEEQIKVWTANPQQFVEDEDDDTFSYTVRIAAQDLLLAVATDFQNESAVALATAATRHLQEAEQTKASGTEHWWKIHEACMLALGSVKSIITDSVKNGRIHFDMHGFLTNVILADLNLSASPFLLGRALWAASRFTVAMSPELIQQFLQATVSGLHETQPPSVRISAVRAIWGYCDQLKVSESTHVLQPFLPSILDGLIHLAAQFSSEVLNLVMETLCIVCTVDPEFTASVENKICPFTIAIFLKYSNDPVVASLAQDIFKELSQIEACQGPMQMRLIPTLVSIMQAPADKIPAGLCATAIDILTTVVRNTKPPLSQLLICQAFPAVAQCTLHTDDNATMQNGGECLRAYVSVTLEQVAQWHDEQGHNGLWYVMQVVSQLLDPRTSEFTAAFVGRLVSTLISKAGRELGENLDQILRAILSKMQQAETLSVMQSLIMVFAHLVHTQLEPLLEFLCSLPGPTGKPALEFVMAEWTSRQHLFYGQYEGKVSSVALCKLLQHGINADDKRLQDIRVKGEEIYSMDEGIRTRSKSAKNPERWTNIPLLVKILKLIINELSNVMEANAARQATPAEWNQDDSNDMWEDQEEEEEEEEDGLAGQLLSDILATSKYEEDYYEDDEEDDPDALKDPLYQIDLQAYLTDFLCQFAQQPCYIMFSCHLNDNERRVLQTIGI
UniProt Q91V76: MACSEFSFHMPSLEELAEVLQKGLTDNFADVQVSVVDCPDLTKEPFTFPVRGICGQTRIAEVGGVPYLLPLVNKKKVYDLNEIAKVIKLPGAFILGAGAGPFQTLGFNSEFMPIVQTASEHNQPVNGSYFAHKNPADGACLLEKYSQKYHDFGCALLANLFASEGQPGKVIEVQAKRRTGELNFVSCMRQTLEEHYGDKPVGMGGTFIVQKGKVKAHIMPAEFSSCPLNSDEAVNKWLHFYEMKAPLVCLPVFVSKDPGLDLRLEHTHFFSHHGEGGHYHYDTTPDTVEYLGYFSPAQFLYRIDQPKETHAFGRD
UniProt Q91YN1: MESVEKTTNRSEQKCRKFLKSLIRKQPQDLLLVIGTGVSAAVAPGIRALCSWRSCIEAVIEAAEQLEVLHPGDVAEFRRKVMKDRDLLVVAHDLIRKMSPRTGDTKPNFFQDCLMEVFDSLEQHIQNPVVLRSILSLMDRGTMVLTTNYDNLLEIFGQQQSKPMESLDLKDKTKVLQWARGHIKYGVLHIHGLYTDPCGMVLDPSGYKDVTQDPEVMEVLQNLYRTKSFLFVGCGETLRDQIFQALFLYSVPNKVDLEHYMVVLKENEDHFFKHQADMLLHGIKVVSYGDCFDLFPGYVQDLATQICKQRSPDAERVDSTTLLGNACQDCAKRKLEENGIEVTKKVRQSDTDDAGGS
UniProt Q91WI7: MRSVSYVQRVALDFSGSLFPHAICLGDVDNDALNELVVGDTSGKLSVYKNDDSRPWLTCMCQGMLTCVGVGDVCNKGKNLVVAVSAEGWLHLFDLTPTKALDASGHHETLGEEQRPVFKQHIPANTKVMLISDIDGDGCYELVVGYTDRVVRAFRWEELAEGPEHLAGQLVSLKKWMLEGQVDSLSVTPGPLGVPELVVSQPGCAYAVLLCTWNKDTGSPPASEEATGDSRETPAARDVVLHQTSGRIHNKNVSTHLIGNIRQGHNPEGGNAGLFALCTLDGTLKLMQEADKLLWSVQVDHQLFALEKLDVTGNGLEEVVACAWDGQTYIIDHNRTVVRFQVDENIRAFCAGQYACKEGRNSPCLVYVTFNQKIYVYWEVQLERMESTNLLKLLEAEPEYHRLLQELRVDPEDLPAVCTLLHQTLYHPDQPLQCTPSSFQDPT
UniProt Q91V09: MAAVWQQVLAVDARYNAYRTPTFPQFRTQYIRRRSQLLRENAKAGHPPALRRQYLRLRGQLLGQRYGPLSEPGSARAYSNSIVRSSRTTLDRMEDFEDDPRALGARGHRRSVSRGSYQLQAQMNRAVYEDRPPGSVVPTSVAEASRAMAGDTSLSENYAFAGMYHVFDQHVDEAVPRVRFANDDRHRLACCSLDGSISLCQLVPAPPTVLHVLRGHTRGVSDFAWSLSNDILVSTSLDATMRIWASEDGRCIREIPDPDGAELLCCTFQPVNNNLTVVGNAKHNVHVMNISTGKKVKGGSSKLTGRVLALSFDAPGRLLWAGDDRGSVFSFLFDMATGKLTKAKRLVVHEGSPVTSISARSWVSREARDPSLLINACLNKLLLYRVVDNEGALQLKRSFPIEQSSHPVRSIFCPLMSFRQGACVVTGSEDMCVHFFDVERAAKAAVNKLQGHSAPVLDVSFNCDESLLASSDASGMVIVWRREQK
UniProt Q8VHR0: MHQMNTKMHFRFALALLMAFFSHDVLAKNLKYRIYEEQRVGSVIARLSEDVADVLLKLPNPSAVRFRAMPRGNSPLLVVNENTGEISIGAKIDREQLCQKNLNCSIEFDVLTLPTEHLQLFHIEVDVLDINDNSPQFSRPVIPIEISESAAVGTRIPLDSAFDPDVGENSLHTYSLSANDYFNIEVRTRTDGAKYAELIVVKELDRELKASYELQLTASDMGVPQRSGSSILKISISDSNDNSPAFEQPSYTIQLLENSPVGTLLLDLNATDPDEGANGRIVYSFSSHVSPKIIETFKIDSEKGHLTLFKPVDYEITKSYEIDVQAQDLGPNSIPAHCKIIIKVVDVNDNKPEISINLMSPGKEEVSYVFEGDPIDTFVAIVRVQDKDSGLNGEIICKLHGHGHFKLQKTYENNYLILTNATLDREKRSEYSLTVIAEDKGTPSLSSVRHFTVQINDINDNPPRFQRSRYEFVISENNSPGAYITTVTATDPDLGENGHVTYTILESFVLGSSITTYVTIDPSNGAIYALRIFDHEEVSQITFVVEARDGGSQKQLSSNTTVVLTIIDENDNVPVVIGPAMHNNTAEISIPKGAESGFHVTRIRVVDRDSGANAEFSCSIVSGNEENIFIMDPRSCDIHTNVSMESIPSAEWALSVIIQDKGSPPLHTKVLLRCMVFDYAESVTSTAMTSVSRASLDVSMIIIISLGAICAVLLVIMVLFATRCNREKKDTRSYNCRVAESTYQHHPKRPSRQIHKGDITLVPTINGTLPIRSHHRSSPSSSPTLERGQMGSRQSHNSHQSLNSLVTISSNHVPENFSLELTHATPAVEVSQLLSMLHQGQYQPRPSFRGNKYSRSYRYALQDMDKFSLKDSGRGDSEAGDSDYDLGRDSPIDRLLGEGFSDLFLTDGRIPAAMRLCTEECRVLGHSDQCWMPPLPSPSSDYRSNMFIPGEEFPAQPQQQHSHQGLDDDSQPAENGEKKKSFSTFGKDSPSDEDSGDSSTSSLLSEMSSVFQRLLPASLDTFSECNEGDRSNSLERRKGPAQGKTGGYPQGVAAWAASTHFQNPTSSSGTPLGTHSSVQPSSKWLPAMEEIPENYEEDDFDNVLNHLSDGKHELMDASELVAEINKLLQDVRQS
UniProt Q91YD9, whole entry: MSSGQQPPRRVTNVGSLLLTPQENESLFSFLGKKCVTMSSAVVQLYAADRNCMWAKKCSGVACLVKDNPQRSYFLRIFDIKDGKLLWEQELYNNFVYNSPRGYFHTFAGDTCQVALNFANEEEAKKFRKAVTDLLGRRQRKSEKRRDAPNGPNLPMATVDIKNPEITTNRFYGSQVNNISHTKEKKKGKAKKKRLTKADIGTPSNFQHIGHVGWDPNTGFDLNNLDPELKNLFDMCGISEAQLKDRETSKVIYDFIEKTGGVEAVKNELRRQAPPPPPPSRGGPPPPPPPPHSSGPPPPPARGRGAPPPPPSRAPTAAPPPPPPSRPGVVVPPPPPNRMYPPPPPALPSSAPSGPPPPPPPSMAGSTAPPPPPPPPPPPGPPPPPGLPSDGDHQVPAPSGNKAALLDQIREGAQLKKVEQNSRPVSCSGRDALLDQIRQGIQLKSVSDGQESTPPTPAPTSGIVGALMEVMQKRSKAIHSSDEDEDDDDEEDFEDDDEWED
UniProt Q91YT7: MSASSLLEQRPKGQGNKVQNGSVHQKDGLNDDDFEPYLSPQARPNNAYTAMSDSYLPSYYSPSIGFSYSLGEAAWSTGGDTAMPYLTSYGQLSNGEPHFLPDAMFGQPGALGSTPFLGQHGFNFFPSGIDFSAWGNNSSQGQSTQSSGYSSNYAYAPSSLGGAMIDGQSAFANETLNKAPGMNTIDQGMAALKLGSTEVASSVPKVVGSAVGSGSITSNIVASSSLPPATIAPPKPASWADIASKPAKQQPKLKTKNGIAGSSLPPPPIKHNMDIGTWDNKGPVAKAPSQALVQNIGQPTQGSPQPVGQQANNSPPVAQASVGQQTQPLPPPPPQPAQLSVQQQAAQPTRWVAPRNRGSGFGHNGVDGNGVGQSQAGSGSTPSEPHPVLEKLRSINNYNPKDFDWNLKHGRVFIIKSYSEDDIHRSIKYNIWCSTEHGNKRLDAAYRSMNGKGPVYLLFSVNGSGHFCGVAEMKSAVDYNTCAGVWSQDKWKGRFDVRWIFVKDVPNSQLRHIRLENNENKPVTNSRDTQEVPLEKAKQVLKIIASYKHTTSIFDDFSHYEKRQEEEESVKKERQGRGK
UniProt Q91ZU1: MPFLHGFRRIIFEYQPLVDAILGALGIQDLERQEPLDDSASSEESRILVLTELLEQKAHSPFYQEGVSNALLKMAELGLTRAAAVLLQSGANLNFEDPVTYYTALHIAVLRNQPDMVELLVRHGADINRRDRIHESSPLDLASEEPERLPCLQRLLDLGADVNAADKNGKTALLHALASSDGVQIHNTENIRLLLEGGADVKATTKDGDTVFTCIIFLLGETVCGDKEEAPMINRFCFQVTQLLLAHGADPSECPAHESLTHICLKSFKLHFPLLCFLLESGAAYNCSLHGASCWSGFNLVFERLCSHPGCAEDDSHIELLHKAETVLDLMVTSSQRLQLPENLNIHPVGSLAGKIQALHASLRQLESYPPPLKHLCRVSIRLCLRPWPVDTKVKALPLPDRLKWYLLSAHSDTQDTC
UniProt Q91WN4: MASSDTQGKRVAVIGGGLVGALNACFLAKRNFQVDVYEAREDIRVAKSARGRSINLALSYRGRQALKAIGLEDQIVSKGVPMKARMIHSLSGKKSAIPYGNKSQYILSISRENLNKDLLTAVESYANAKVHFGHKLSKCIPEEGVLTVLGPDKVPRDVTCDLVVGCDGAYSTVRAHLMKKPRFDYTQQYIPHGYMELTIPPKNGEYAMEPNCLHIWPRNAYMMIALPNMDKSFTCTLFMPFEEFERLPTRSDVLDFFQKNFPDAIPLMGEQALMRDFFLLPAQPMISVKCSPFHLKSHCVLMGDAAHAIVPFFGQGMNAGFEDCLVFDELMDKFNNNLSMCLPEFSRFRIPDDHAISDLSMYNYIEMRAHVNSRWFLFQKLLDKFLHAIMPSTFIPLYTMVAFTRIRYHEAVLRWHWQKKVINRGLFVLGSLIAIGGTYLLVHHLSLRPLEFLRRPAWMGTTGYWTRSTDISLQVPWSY
UniProt Q91V81: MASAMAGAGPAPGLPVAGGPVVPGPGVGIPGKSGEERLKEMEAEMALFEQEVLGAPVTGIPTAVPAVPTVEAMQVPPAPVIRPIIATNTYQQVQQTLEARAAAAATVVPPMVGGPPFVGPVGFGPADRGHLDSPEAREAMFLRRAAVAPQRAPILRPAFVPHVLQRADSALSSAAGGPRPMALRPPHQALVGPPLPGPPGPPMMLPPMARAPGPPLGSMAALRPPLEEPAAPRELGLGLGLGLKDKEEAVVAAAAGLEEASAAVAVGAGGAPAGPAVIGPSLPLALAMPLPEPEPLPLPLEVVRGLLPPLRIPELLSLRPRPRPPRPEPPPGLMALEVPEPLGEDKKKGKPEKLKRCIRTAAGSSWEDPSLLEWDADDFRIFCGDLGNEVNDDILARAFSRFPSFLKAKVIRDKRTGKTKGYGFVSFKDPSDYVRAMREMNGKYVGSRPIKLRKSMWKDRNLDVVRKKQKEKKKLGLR
UniProt Q91Y97: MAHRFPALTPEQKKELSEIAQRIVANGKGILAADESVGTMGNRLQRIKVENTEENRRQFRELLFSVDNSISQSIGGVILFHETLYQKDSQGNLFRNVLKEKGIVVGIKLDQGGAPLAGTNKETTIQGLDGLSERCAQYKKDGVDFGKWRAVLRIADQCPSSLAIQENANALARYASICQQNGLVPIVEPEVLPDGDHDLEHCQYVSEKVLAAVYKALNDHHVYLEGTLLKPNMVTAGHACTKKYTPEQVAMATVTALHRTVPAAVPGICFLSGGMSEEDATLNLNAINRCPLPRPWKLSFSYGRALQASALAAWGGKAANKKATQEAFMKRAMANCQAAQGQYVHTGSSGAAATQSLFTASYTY

compound: CN[C@@H]1C[C@H]2O[C@@](C)([C@@H]1OC)n1c3ccccc3c3c4c(c5c6ccccc6n2c5c31)C(=O)NC4 [staurosporine]; experiment: log2 fold change of tryptic peptide abundance, ligand vs vehicle (limited proteolysis) (log2 ratio); higher = more trypsin-susceptible (destabilized); conditions: ligand concentration: 20 uM; sample: mouse liver crude lysate; replicate design: treated separately

Target	log2 fold change
UniProt Q91XE0 (peptide sequence: QHLQIQSSQSHLNK, peptide start residue: 100)	-0.202
UniProt Q91WD4 (peptide sequence: VDRDNVLAR, peptide start residue: 225)	0.429
UniProt Q91WS2 (peptide sequence: LKQQQLQK, peptide start residue: 94)	-0.332
UniProt Q91YP0 (peptide sequence: GNIYPVPDSR, peptide start residue: 299)	0.231
UniProt Q91YE6 (peptide sequence: ELLPNGLR, peptide start residue: 111)	0.361
UniProt Q91V76 (peptide sequence: ETHAFGRD, peptide start residue: 308)	-0.336
UniProt Q91WB4 (peptide sequence: NGWLIKTPTK, peptide start residue: 98)	0.719
UniProt Q91YN1 (peptide sequence: DRDLLVVAHDLIR, peptide start residue: 84)	0.23
UniProt Q91X84 (peptide sequence: HHGLVERPAR, peptide start residue: 91)	0.609
UniProt Q91XT4 (peptide sequence: FATIEAIQR, peptide start residue: 590)	-0.304
UniProt Q91YP2 (peptide sequence: WDLSPEQIR, peptide start residue: 50)	-0.523
UniProt Q91WI7 (peptide sequence: NVSTHLIGNIR, peptide start residue: 252)	0.48
UniProt Q91V09 (peptide sequence: VVDNEGALQLKR, peptide start residue: 386)	-0.284
UniProt Q8VHR0 (peptide sequence: ELDRELK, peptide start residue: 3371)	-0.208
UniProt Q91XB7 (peptide sequence: AYHSAYGVHGSK, peptide start residue: 2)	-0.0348
UniProt Q91YD9 (peptide sequence: KAVTDLLGR, peptide start residue: 129)	0.217
UniProt Q91YT7 (peptide sequence: LENNENKPVTNSR, peptide start residue: 515)	-0.646
UniProt Q91ZU1 (peptide sequence: LCLRPWPVDTK, peptide start residue: 383)	0.362

Another view of some results above:
UniProt Q91V09 (peptide sequence: VVDNEGALQLKR, peptide start residue: 386)
  log2 fold change: -0.284
UniProt Q8VHR0 (peptide sequence: ELDRELK, peptide start residue: 3371)
  log2 fold change: -0.208

Going on with the list:

Target	log2 fold change
UniProt Q8VII8 (peptide sequence: SGILPSDIK, peptide start residue: 81)	-0.0936
UniProt Q91YN0 (peptide sequence: VQPSQFR, peptide start residue: 248)	0.178
UniProt Q91ZU6 (peptide sequence: ATDPPSLQSHIPVLDKGR, peptide start residue: 6923)	0.537
UniProt Q91WN4 (peptide sequence: KSAIPYGNK, peptide start residue: 94)	-0.562
UniProt Q91YL2 (peptide sequence: YFCHCCSVEIVPR, peptide start residue: 11)	-0.155
UniProt Q91YP3 (peptide sequence: GTELDLSWISK, peptide start residue: 7)	0.342
UniProt Q91V81 (peptide sequence: GHLDSPEAR, peptide start residue: 129)	-0.133
UniProt Q91WE4 (peptide sequence: KAVQQSGDKNMSK, peptide start residue: 35)	0.25
UniProt Q91VH1 (peptide sequence: GSAGAQGNGAPSGNR, peptide start residue: 6)	-0.606
UniProt Q91Y97 (peptide sequence: YTPEQVAMATVTALHR, peptide start residue: 244)	-0.287
UniProt Q8VHG2 (peptide sequence: LMQMSLATSGVK, peptide start residue: 179)	0.622
UniProt Q91ZN5 (peptide sequence: AVPTEPPVQK, peptide start residue: 421)	-0.46
UniProt Q91X34 (peptide sequence: GNLFSSQAFYR, peptide start residue: 41)	-0.298
UniProt Q91WM2 (peptide sequence: VPVVFVTNAGNILQHNK, peptide start residue: 83)	0.176
UniProt Q91YE7 (peptide sequence: NGDEENPLKR, peptide start residue: 605)	-0.415
UniProt Q8VIK5 (peptide sequence: SYSCSYSHR, peptide start residue: 885)	0.399
UniProt Q91YU6 (peptide sequence: GAPSLPGFLGPR, peptide start residue: 157)	0.385
